# Data published in the supplement of paper PMC12067093, “Discovery and optimisation of a covalent ligand for TRIM25 and its application to targeted protein ubiquitination” (Chemical Science, 2025).
# The list shows a part of the results.
# Molecular target: T1, TRMT12_Q53H54_444_SYAPHVDHIVLDLECCPCPSVG (UniProt Q53H54)
# T1 sequence (whole entry): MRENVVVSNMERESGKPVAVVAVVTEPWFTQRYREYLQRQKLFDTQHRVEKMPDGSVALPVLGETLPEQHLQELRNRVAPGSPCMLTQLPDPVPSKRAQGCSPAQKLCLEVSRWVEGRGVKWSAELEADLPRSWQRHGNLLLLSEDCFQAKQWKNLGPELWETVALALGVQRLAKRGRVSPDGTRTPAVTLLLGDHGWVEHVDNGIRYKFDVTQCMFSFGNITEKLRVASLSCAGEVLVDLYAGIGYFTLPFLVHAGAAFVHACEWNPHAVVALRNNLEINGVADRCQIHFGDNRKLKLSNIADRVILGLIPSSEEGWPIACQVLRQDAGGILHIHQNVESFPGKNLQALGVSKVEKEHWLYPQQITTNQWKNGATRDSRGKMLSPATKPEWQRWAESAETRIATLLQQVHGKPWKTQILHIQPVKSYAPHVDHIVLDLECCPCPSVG
# Test: probe-labelled cysteine peptide fold change vs DMSO (competition) (log2 fold change); higher = less target engagement (more negative = stronger competition)
# Conditions: THP-1, incubation time: 4 h
# 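Further: competitive profiling in live THP-1 cells: cysteine peptides tagged with an iodoacetamide desthiobiotin (IA-DTB) probe, intensity after compound treatment relative to DMSO-treated cells.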
structure (smiles),measurement,setting,value
Cc1cc(C(=O)N2CCCN(C(=O)CCl)CC2)ccc1-c1ccccc1 [compound 10],probe-labelled cysteine peptide fold change,10 µM,0.0896
same,probe-labelled cysteine peptide fold change,50 µM,0.123
